Data taken from patent US5650488A, “Polypeptide inhibitor of the replication of HSV” (British Technology Group Limited, priority 1991, dated 1997).
Part of at least one peptide drawing is inferred or uncertain, most often the ends. Ends that are not written are not given here. Peptide text beside a SMILES is read from it.

The chains behind the UniProt entries cited, without tags or fusion partners. Where a name states a change or a piece, a line headed by the entry shows the natural chain unless it says otherwise.
UniProt P51610: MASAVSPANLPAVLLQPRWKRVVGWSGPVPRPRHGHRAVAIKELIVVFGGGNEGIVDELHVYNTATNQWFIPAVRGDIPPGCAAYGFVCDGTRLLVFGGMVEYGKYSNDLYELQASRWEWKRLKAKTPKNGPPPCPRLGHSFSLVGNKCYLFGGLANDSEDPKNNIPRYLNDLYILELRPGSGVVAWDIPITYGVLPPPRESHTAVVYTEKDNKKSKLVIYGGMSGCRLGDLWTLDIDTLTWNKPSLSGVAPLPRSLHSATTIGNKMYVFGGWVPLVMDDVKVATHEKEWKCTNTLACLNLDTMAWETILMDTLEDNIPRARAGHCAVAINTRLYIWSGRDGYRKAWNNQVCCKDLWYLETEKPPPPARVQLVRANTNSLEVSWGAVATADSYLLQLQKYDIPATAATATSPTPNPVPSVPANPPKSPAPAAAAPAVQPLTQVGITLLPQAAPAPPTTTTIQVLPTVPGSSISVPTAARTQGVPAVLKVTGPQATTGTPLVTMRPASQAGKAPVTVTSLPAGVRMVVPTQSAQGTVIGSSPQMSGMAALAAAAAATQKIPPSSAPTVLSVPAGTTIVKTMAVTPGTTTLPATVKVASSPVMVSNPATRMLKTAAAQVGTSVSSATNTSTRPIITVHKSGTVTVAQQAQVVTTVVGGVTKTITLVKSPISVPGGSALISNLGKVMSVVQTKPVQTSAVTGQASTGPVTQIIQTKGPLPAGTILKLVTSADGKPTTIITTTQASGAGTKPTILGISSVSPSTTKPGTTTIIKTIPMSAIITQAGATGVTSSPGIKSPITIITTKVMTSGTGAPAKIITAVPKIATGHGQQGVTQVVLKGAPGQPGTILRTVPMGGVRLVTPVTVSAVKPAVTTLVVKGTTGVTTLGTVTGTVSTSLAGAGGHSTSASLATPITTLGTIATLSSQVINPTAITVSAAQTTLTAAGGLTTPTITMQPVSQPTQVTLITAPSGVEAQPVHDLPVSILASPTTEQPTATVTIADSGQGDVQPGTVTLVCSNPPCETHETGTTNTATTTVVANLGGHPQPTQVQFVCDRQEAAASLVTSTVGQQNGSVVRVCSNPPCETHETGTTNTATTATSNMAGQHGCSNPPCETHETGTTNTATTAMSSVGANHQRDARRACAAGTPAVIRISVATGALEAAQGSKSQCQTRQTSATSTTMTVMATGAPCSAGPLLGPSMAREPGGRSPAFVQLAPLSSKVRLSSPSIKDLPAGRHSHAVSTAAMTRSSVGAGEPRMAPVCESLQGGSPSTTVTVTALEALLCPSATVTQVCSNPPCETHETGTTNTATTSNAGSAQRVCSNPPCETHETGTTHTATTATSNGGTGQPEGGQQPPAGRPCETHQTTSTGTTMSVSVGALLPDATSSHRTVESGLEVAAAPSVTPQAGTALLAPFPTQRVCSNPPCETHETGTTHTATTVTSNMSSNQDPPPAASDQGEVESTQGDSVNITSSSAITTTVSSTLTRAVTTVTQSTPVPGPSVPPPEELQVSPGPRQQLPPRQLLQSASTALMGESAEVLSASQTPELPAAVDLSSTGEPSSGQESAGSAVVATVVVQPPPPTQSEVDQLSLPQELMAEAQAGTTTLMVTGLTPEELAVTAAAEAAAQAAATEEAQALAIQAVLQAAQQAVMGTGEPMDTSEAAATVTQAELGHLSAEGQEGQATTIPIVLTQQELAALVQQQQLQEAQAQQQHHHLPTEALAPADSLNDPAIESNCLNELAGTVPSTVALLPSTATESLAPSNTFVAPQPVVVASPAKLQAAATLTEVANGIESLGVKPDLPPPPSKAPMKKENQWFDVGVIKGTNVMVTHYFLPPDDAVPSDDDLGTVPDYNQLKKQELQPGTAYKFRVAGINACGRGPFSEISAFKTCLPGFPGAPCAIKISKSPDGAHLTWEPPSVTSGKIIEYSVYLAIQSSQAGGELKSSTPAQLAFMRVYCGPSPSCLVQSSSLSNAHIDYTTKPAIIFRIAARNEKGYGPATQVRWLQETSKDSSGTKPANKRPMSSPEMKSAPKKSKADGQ

The compounds below were run against T1, TRF/Vmw 65/CFF complex (Homo sapiens, UniProt P51610) (assay: Peptide inhibition of quaternary complex assembly (gel retardation with HeLa nuclear extract, purified Vmw 65 and 32P-labelled TAATGARAT probe)). Conditions: inhibition of complex formation; experiment of Example 1 repeated with various Vmw-65 polypeptides.
T1 construct: A nuclear extract of HeLa cells was prepared; from tissue; host or cells: HeLa cell nuclear extract (TRF, CFF)
Assay type: biochemical, HSV-1
Set-up: key: "+++" indicates a high level inhibition of complex formation; "++" indicates a lower level and so on; "-" indicates no inhibition of complex formation
Method: A nuclear extract of HeLa cells was prepared exactly as described by Dignam et al., Nucl. Acids. Res. 11 1475-1489, (1983) (This is a standard protocol for the preparation of extracts containing cellular DNA binding proteins). Polypeptides from Vmw 65 amino acids were synthesised by Cambridge Research Biochemicals Ltd., Cambridge, UK, under contract, in accordance with the sequence set forth above. 1 μl volumes of phosphate buffered saline containing increasing amounts (100 ng, 500 ng, 1 μg, 2.5 μg, 5μg) of the polypeptide (amino acids 360-367) was added to a standard amount of HeLa cell nuclear extract (1 μl extract per 2 μg polypeptide). After incubation at 20° C. for 30 minutes a 1 μl sample of Vmw 65 protein, purified as described by P. O'Hare et al., EMBO J. 7: 4231-4238 (1988) was added to the extract polypeptide mixtures and incubation continued for a further 5 minutes in a buffer containing 25 mM HEPES pH 7.9, 1 mM EDTA, 5 mM DTT, 100 mM KCl, 0.05% NP40 10% glycerol, and 2 μg of salmon sperm DNA. A ^32 P radioactively labelled probe present in excess and encompassing nucleotides -171 to -149 (numbered starting upstream of the site of mRNA transcription: the TAATGARAT sequence is at -162 to -154) of the immediate-early IE110K gene of HSV-1 was then added and incubation continued for a further 25 minutes. The products were then separated on 4% non-denaturing polyacrylamide gels at 200 volts for 2 hours. These procedures are essentially as described in O'Hare and Goding, Cell 52: 435-445 (1988).
The polypeptides tested included one comprising the region 360-366 of Vmw-65 and another comprising the region 355-367. This latter polypeptide is an example of a polypeptide of the present invention being flanked by a flanking stabilizing region. In the Table the results of the experiment are shown as follows: "+++" indicates a high level inhibition of complex formation, "++" indicates a lower level and so on. "-" indicates no inhibition of complex formation.

Compound | Level of Inhibition
C[C@H](NC(=O)[C@H](Cc1c[nH]cn1)NC(=O)[C@H](CCC(=O)O)NC(=O)[C@@H](N)CCCNC(=N)N)C(=O)O [360-363] (H-REHA-OH) | -
C[C@H](NC(=O)[C@H](Cc1c[nH]cn1)NC(=O)[C@@H](N)CCC(=O)O)C(=O)N[C@@H](Cc1ccc(O)cc1)C(=O)O [361-364] (H-EHAY-OH) | -
AYSRA [363-367] | -
EHAYS [361-365] | -
EHAYSR [361-366] | -
HAYSRA [362-367] | -
REHAY [360-364] | -
REHAYS [360-365] | -
